Earlier results, collected in patent publication US5215971A, “Antiviral pharmaceutical composition comprising 5-substituted pyrimidine nucleosides” (priority 1986, dated 1993).
At least one compound was matched to its structure with a doubt left. Some entries repeat one wording, which the source may state once for all of them.

Legend:
[1] = test system: HIV reverse transcriptase; conditions: nucleoside analogues in the form of triphosphates; Oberg; cited from earlier work
HIV [2] = conditions: Oberg; cited from earlier work
HIV [3] = conditions: Oberg; cited from earlier work; remark: listed apart in the source

Structure (SMILES)	inhibition of HIV reverse transcriptase [1]	inhibition of HIV replication in cell cultures (HIV [2])	anti-HIV properties in patients (HIV [3])
Nc1ccn([C@H]2CC[C@@H](CO)O2)c(=O)n1 [dideoxycytidine]	inhibitors of HIV reverse transcriptase		
O=C(O)P(=O)(O)O [phosphonoformate]	inhibitors of HIV reverse transcriptase	inhibit HIV replication in cell cultures	shown anti-HIV properties in patients
Cc1cn([C@H]2C[C@H](N=[N+]=[N-])[C@@H](CO)O2)c(=O)[nH]c1=O [azidothymidine]	inhibitors of HIV reverse transcriptase	inhibit HIV replication in cell cultures	shown anti-HIV properties in patients
